The list shows only some results of the screen, not a fair sample: it gathers tests that were run many times, whatever their T/C, doses with no T/C, and many T/C values between a quarter and a half above the control. Further doses and runs are listed elsewhere. T/C: endpoint of the treated group in % of that of the vehicle group. Schedules are NCI's codes, taken here to give the interval after Q, in days (D) or hours (H), and the number of doses after X. Some T/C values carry the count of animals alive at the toxicity check (mostly the fifth day); where none is given, no animal had died by that day. Some entries give survivors of the animals treated and no T/C: the source holds a T/C of zero for them, seemingly a mark for toxic or unscored doses. Counts of survivors are from the toxicity check (mostly the fifth day) where no day follows; animals may have died later. Some entries were tested several times; the results are listed from low to high.

The assay deals with BDF1 mice, Adenocarcinoma 755 s.c., tumor weight T/C. The experiment in a line: NCI In Vivo Anticancer Drug Screen. Data for tumor model Adenocarcinoma 755 (subcutaneous) in B6D2F1 (BDF1) mice. The note with it: T/C endpoint: mean tumor weight, higher T/C = larger tumour; for T/C: evaluated on day 12. An outline of the steps:
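Transplantable tumor implanted; mice dosed with compound or vehicle; survival or tumor size recorded; ratio of treated to vehicle control reported.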

The mark [1] stands for this setting: dose: 62.0 mg/kg/injection, schedule: Q01DX011 (ip), vehicle: methylcellulose (MC).
[2] abbreviates: dose: 125.0 mg/kg/injection, schedule: Q01DX011 (ip), vehicle: methylcellulose (MC).
The mark [3] stands for this setting: dose: 250.0 mg/kg/injection, schedule: Q01DX011 (ip), vehicle: methylcellulose (MC).
The mark [4] stands for this setting: dose: 25.0 mg/kg/injection, schedule: Q01DX011 (ip), vehicle: methylcellulose (MC).
Setting [5] is: dose: 80.0 mg/kg/injection, schedule: Q01DX011 (sc), vehicle: steroid suspending solution.

In the case of `O=C(Nc1ccc(NC(=O)Nc2cccc(C3=NCCN3)c2)cc1)Nc1cccc(C2=NCCN2)c1`, the survivor count (dose: 187.5 mg/kg/injection, schedule: Q01DX011 (ip), vehicle: carboxymethylcellulose (CMC)) was 2 of 10; the survivor count (dose: 375.0 mg/kg/injection, schedule: Q01DX011 (ip), vehicle: carboxymethylcellulose (CMC)) is recorded as 3 of 10; the survivor count (dose: 750.0 mg/kg/injection, schedule: Q01DX011 (ip), vehicle: carboxymethylcellulose (CMC)) is listed as 0 of 10; the survivor count (dose: 1500.0 mg/kg/injection, schedule: Q01DX011 (ip), vehicle: carboxymethylcellulose (CMC)) is 0 of 10; the survivor count (dose: 3000.0 mg/kg/injection, schedule: Q01DX011 (ip), vehicle: carboxymethylcellulose (CMC)) is reported as 2 of 10.

On to `CSc1ncc(C)c(Nc2ccc(Br)cc2)n1`, for which the T/C under setting [1] is 132 % of control [8 of 10 alive]. Besides, the survivor count under setting [2] is 5 of 10 and the survivor count under setting [3] is listed as 1 of 10.

`Cn1c(=O)c2c(nc(N/N=C/C(Cl)Cl)n2C)n(C)c1=O`: under setting [4], the survivor count is 2 of 10 and 4 of 10.

With `Nc1nc(Cl)cc(Nc2ccc(CCO)cc2)n1`, the survivor count runs as follows: (dose: 31.0 mg/kg/injection, schedule: Q01DX011 (ip), vehicle: methylcellulose (MC)) 6 of 10; under setting [3], 4 of 10.

In the case of `CC(=O)OCC(=O)C1(O)C(C)CC2C3C=C(C)C4=Cc5c(cnn5-c5ccccc5)CC4(C)C3C(O)CC21C` (centres undefined), the survivor count (dose: 0.4 mg/kg/injection, schedule: Q01DX011 (sc), vehicle: steroid suspending solution) is 3 of 6 and 6 of 10; the survivor count (dose: 0.8 mg/kg/injection, schedule: Q01DX011 (sc), vehicle: steroid suspending solution) was 0 of 10; the survivor count (dose: 2.5 mg/kg/injection, schedule: Q01DX011 (sc), vehicle: steroid suspending solution) was 4 of 10.

In the case of `NNC(=O)CCC(N)C(=O)O` (centres undefined), where the note is “dose: 43.05 mg/kg/injection, schedule: Q01DX011 (ip), vehicle: carboxymethylcellulose (CMC)”, the T/C is 134 % of control. Further, the survivor count (dose: 86.1 mg/kg/injection, schedule: Q01DX011 (ip), vehicle: carboxymethylcellulose (CMC)) is 6 of 10.

With `CC(=O)OCC(=O)[C@@]1(O)CC[C@H]2[C@@H]3C[C@H](C)C4=CC(=O)C=C[C@]4(C)[C@H]3[C@@H](O)C[C@@]21C`, the survivor count by setting is: under setting [5], 6 of 10; (dose: 160.0 mg/kg/injection, schedule: Q01DX011 (sc), vehicle: steroid suspending solution) 4 of 10; (dose: 320.0 mg/kg/injection, schedule: Q01DX011 (sc), vehicle: steroid suspending solution) 4 of 12.

Take `CS(=O)(=O)OCCC(=O)NCCCCCNC(=O)CCOS(C)(=O)=O`: the survivor count (dose: 450.0 mg/kg/injection, schedule: Q01DX011 (ip), vehicle: methylcellulose (MC)) is on record as 6 of 10.

As to `Nc1nc(-c2cccnc2)nc(N)c1N=O`, the T/C (dose: 15.0 mg/kg/injection, schedule: Q01DX011 (ip), vehicle: methylcellulose (MC)) was 129 % of control [9 of 10 alive].

With `CSc1ncnc2c1ncn2CCO`, the survivor count (dose: 75.0 mg/kg/injection, schedule: Q01DX011 (ip), vehicle: methylcellulose (MC)) was 3 of 10.

For the compound `CN1CC[C@]23c4c5ccc(O)c4O[C@H]2C(=O)CC[C@H]3[C@H]1C5`, the survivor count (dose: 16.0 mg/kg/injection, schedule: Q01DX011 (ip), vehicle: methylcellulose (MC)) is 5 of 10; the survivor count (dose: 32.0 mg/kg/injection, schedule: Q01DX011 (ip), vehicle: methylcellulose (MC)) is 3 of 10 and 6 of 10; the survivor count (dose: 64.0 mg/kg/injection, schedule: Q01DX011 (ip), vehicle: methylcellulose (MC)) was 4 of 10.

`CC(CNC(=O)CCOS(C)(=O)=O)CNC(=O)CCOS(C)(=O)=O`: the survivor count (dose: 400.0 mg/kg/injection, schedule: Q01DX011 (ip), vehicle: carboxymethylcellulose (CMC)) was 3 of 10.

As to `CC(=O)OCC(=O)[C@@]1(O)CC[C@H]2[C@@H]3CCC4=CC(=O)C=C[C@]4(C)[C@H]3[C@@H](O)C[C@@]21C`, the survivor count by setting is: under setting [5], 6 of 10; (dose: 101.0 mg/kg/injection, schedule: Q01DX011 (sc), vehicle: steroid suspending solution) 6 of 10.

In the case of `O=c1[nH]c2cnc(Cl)nc2[nH]1`, the T/C (dose: 240.0 mg/kg/injection, schedule: Q01DX011 (ip), vehicle: carboxymethylcellulose (CMC)) is 143 % of control. The survivor count (dose: 300.0 mg/kg/injection, schedule: Q01DX011 (ip), vehicle: carboxymethylcellulose (CMC)) is 2 of 10.

Regarding `CSc1nc(S(C)(=O)=O)ncc1C`, under setting [2], the survivor count is listed as 6 of 10.

As to `CCc1nc(N)nc(N)c1-c1ccc(Cl)cc1`, the T/C reads like this: (dose: 5.93 mg/kg/injection, schedule: Q01DX011 (ip), vehicle: carboxymethylcellulose (CMC)) 135 % of control; (dose: 12.5 mg/kg/injection, schedule: Q01DX011 (ip), vehicle: methylcellulose (MC)) 126 % of control; under setting [4], 127 % of control. The survivor count (dose: 50.0 mg/kg/injection, schedule: Q01DX011 (ip), vehicle: methylcellulose (MC)) is recorded as 3 of 10 and the survivor count (dose: 100.0 mg/kg/injection, schedule: Q01DX011 (ip), vehicle: methylcellulose (MC)) is on record as 2 of 10.

For `O=[N+]([O-])O.[Ga]`, the survivor count (dose: 100.0 mg/kg/injection, schedule: Q01DX011 (ip), vehicle: saline) was 2 of 12.

`O=C(Nc1ccc(C2=NCCCN2)cc1)c1ccc(NC(=O)c2ccc(C3=NCCCN3)cc2)cc1`: the survivor count (dose: 16.0 mg/kg/injection, schedule: Q01DX011 (ip), vehicle: carboxymethylcellulose (CMC)) was 5 of 10.

As for `CCCCCCCCCCCC[N+](C)(C)c1ncnc2nc[nH]c12`, the T/C (dose: 6.0 mg/kg/injection, schedule: Q01DX011 (ip), vehicle: carboxymethylcellulose (CMC)) was 129 % of control.

Take `CSc1ncc(Br)c(Nc2ccccc2Cl)n1`: the T/C is, setting by setting: under setting [1], 129 % of control [9 of 10 alive]; under setting [2], 136 % of control.

For the compound `O=C(CCl)Nc1ncnc2nc[nH]c12`, for the setting “dose: 65.0 mg/kg/injection, schedule: Q01DX011 (ip), vehicle: methylcellulose (MC)”, the survivor count is 3 of 10.

Turning to `CC(=O)OCC(=O)[C@@]1(O)CC[C@H]2[C@@H]3CCC4=CC(=O)C=C[C@]4(C)[C@H]3C(=O)C[C@@]21C`, the survivor count is 1 of 10 (dose: 115.0 mg/kg/injection, schedule: Q01DX011 (sc), vehicle: steroid suspending solution); 6 of 10 (dose: 120.0 mg/kg/injection, schedule: Q01DX011 (sc), vehicle: steroid suspending solution); 1 of 12 and 2 of 10 (dose: 230.0 mg/kg/injection, schedule: Q01DX011 (sc), vehicle: steroid suspending solution).

As for `O=C1NC(=O)C2(CCCc3ccc(N(CCCl)CCCl)cc32)N1` (centres undefined), the survivor count by setting is: (dose: 110.0 mg/kg/injection, schedule: Q01DX011 (ip), vehicle: carboxymethylcellulose (CMC)) 0 of 10; (dose: 110.0 mg/kg/injection, schedule: Q01DX011 (ip), vehicle: other) 6 of 10.

In the case of `CS(=O)(=O)OCCCl`, the T/C (dose: 20.13 mg/kg/injection, schedule: Q01DX011 (ip), vehicle: carboxymethylcellulose (CMC)) was 134 % of control; the T/C (dose: 28.72 mg/kg/injection, schedule: Q01DX011 (ip), vehicle: carboxymethylcellulose (CMC)) is 136 % of control [8 of 10 alive]; the T/C (dose: 80.5 mg/kg/injection, schedule: Q01DX011 (ip), vehicle: carboxymethylcellulose (CMC)) is 145 % of control. The survivor count was 6 of 10 (dose: 155.0 mg/kg/injection, schedule: Q01DX011 (ip), vehicle: carboxymethylcellulose (CMC)); 1 of 10 and 3 of 10 (dose: 161.0 mg/kg/injection, schedule: Q01DX011 (ip), vehicle: carboxymethylcellulose (CMC)); 5 of 10 (dose: 167.0 mg/kg/injection, schedule: Q01DX011 (ip), vehicle: carboxymethylcellulose (CMC)).

On to `CCCCCCCCCCCCCCCCC(C(=O)O)C(O)(CC(=O)O)C(=O)O` (centres undefined), for which the survivor count (dose: 150.0 mg/kg/injection, schedule: Q01DX011 (ip), vehicle: carboxymethylcellulose (CMC)) was 0 of 10.

The record behind these values is PubChem BioAssay AID180 (DTP/NCI, 2004).
